PubChem BioAssay AID1259425 | University of Nebraska Medical Center | 2018
Shown is one part, drawn at random, of about 14,000 reagents tested. Not all columns of the deposit are shown. The record does not give: the time to read-out.

Purpose: 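Compare each knockdown with KSR1 silencing using changes in marker transcripts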 (primary screen)
Cell system: HCT116 human colon cancer cells
Reagent: siRNA pool against human genes, 50 nM siRNA
Measurement: 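mRNA of six signature genes measured together by branched-DNA assay after 50 nM siRNA pool, blank removed, divided by geometric mean of two housekeeping genes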
Scale: BNIP3L mRNA: higher = more BNIP3L transcript after knockdown; NDRG1 mRNA: higher = more NDRG1 transcript after knockdown; BNIP3 mRNA: higher = more BNIP3 transcript after knockdown; ALDOC mRNA: higher = more ALDOC transcript after knockdown

target gene	BNIP3L mRNA, set 1	NDRG1 mRNA, set 1	BNIP3 mRNA, set 1	ALDOC mRNA, set 1
CLUL1	0.1	0.2	0.306	0.0209
VDAC1	0.135	0.136	0.373	0.026
RCCD1	0.13	0.132	0.223	0.0131
GPR62	0.221	0.0965	0.26	0.0274
CBL	0.0512	0.0929	0.225	0.0243
STMN3	0.0837	0.265	0.292	0.0338
RNF128	0.131	0.107	0.25	0.0315
CYBB	0.138	0.202	0.18	0.0486
LIN7C	0.0647	0.274	0.414	0.00602
ETV5	0.0982	0.166	0.254	0.0262

A stretch taken from the entries so far, as a working copy:
target gene	BNIP3L mRNA, set 1	NDRG1 mRNA, set 1	BNIP3 mRNA, set 1	ALDOC mRNA, set 1
STMN3	0.0837	0.265	0.292	0.0338
RNF128	0.131	0.107	0.25	0.0315
CYBB	0.138	0.202	0.18	0.0486

The list goes on.
target gene	BNIP3L mRNA, set 1	NDRG1 mRNA, set 1	BNIP3 mRNA, set 1	ALDOC mRNA, set 1
CYFIP2	0.109	0.156	0.32	0.0659
SFPQ	0.172	0.402	0.147	0.0226
PLEKHG1	0.209	0.964	0.446	0.1
SLC17A9	0.065	0.252	0.316	0.0208
GJB4	0.228	0.135	0.296	0.0444
ARHGEF38	0.0465	0.104	0.279	0.0512
CDH23	0.233	0.359	0.356	0.0192
ARHGEF11	0.114	0.0816	0.324	0.0191
BIRC6	0.089	0.143	0.288	0.011
TRH	0.0513	0.163	0.195	0.0098
